Reference: PubChem BioAssay AID1259415 (National Center for Advancing Translational Sciences (NCATS), 2018)
Hit rate of the full screen: of about 410,000 compounds, about 18,000 (4.4%) were called active. Inconclusive means that the source gave no clear call. Such entries were picked first, then a sample of the others. Rule as the data show it: active = activity change below about -60%; inconclusive = no clear call, values can overlap the other calls; inactive = above about -39%.

Test: qHTS Assay for inhibitors of the human cytomegalovirus (HCMV)
Settings: HFF cells, HCMV-luciferase reporter, 72 h; at 57.5 µM; active compounds read low
Method in brief: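 Compounds were evaluated in HFFs infected with an HCMV luciferase reporter virus (MOI 1 PFU/cell). Luciferase in lysates collected 72 h post infection served as the replication measure.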
% is scaled to controls: 0 for no effect and ±100 for the full control effect.

Compound | activity change, negative = inhibition
Cc1ccc(/C=C2/NC(=O)N(Cc3ccccc3F)C2=O)o1 | active: -72.3%
COC(=O)C1=C(C)N(Cc2cccc(C(F)(F)F)c2)C(=NCC2CC2)NC1c1cccc(C(F)(F)F)c1 (stereo not drawn) | active: -85.4%
Cc1ccc(/C=N/n2c(-c3ccncc3)n[nH]c2=S)cc1 | inconclusive: -47.7%
COc1ccc(OC)c(C(C(=O)NC2CCCCC2)N(C(=O)c2snc(C(N)=O)c2N)c2ccccc2OC)c1 (stereo not drawn) | active: -60.7%
COc1cccc(NC(=O)Nc2nc(SC(C)(C)C)ns2)c1 | active: -94.8%
Clc1cccc(Cl)c1CO/N=C/c1c(-c2ccccc2)nc2n1CCS2 | inconclusive: -57%
O=C(CN1C(=O)/C(=C/c2cccc(Br)c2)SC1=S)NC1=NCCS1 | inconclusive: -47.5%
CC(=O)N1CCN(Cc2nc3cc(Cl)ccc3c(=O)[nH]2)CC1 | inconclusive: -49.6%
Cc1ccccc1NC(=O)c1ccc(F)c(S(=O)(=O)N2CCN(c3ccccc3F)CC2)c1 | inconclusive: -48%
COc1ccccc1N(C)c1cc2c(c3c1ccn3C)C1CCC2C1 (stereo not drawn) | active: -88.7%
O=C(NCCc1ccccc1)C(=O)NCC(c1ccco1)S(=O)(=O)c1cccs1 (stereo not drawn) | inactive: 11.2%
CC(O)CSc1nc2c(c(=O)[nH]c(=O)n2C)n1CC(O)COc1ccccc1 (stereo not drawn) | active: -93.6%
Cc1ccc(-n2cccc2C(=S)N=P(N(C)C)(N(C)C)N(C)C)cc1 | active: -79.5%
CCOc1ccc(S(=O)(=O)N2CCN(c3ccccc3)CC2)c2cccnc12 | inconclusive: -51.1%
CC1CCCCC1NC(=S)Nc1ccc(SC(F)F)cc1 (stereo not drawn) | active: -99.9%
COc1ccc(S(=O)Cc2ccc(C(=O)N3CCN(c4cccc(C)c4C)CC3)o2)cc1 (stereo not drawn) | inconclusive: -40.7%
Cc1ccc(SCc2cn3ccccc3n2)cc1 | inconclusive: -55.3%
Cc1cc(C2=NNC(=Nc3ccc(S(=O)(=O)N4CCOCC4)cc3)SC2)c(C)n1C | inactive: -22.4%
Cc1ccc(NC(=O)CS(=O)c2ccccc2N)c(C)c1 (stereo not drawn) | inactive: -8.89%
CCOC(=O)c1ccc(Nc2ncnc3ccccc23)cc1 | inconclusive: -52.2%
CCc1nn2c(-c3ccccc3OC)ccnc2c1-c1ccccc1 | inconclusive: -46.8%
Cc1cccc(OCC(=O)NCC(=O)N/N=C/c2cc(Br)cc(Br)c2O)c1 | active: -82.8%

Compound | activity change, negative = inhibition
O=C(C1CCN(S(=O)(=O)c2ccccc2F)CC1)N1CCc2ccccc2C1 | inconclusive: -43.1%
CC1(C)CC(=O)C(N=Nc2cccnc2)=C(O)C1 | inconclusive: -43.3%
Cc1sc2ncnc(N3CCCCC3C)c2c1C (stereo not drawn) | inconclusive: -43.5%
COc1ccc(C)cc1NC(=O)CSc1nnc(COc2ccc(Cl)cc2)n1Cc1ccco1 | active: -83.8%
CCCCC[C@H](O)/C=C/[C@H]1CCC(=O)[C@@H]1CCCCCCC(=O)N1CCCCC1CO (stereo partly drawn) | active: -74.3%
CCC(CC)c1nn2c(=O)cc(COc3ccc(NC(=O)c4ccccc4C)cc3)nc2s1 | inconclusive: -41.5%
COc1ccc(NC(=O)CN(c2ccc(OC)c(Cl)c2)S(=O)(=O)c2ccccc2)cc1 | inconclusive: -40.7%
COc1ccc(CNC(=O)c2cccn2-c2nnc(N3CCCC3)s2)c(OC)c1 | inactive: 0%
COc1cc(/C=C2\CCc3ccccc3C2=O)cc(OC)c1OC | active: -74.3%
CN(C)c1cc(C(F)(F)F)nc(-c2ccccn2)n1 | inactive: -23.1%
C1=C(c2ccccc2)CCNC1 | inactive: 55%
COc1ccccc1Nc1ncnc2scc(-c3ccc(F)cc3)c12 | active: -82.5%
COc1ccc(CC(=O)N[C@@H](CCSC)c2nc3ccccc3[nH]2)cc1 | inconclusive: -59.4%
Cc1ccc(NC(=O)/C(=C\c2cccs2)NC(=O)c2ccccc2)cc1 | inconclusive: -43.3%
Cn1nnnc1Sc1ncnc2scc(-c3ccsc3)c12 | active: -97.1%
Cc1ccc(NS(=O)(=O)c2ccc(-c3ccc(=O)[nH]n3)o2)c(C)c1 | inconclusive: -49.9%
O=C(COC(=O)C1(c2ccc(F)cc2)CCCC1)N1CCN(C(=O)c2ccco2)CC1 | active: -106%
COc1ccc(N2CCC(CNC(=O)Nc3ccc(C)c(C)c3)C2)cc1 (stereo not drawn) | inactive: 10.8%
O=C(NCC1CCCO1)c1ccc(COc2ccc(Br)cc2)cc1 (stereo not drawn) | inconclusive: -44.8%
CC(C)(C)NC(=O)CSc1nnc(Cc2ccccc2)n1CC1CCCO1 (stereo not drawn) | inconclusive: -40.3%
N#Cc1c(NC(=O)CSc2nnc(-c3ccncc3)n2CC2CCCO2)sc2c1CCCC2 (stereo not drawn) | active: -80.3%
C/C=C/C(=O)OCC(=O)Nc1cc(OC)c([N+](=O)[O-])cc1C | inactive: -13.7%

Compound | activity change, negative = inhibition
CC(=O)c1ccc(N2CCN(C(=O)c3cccc(Oc4ccccc4)c3)CC2)cc1 | inactive: -1.06%
Fc1ccc(OCc2nc(-c3ccncc3)n[nH]2)cc1 | inconclusive: -41.7%
Cc1ccccc1NC(=O)COC(=O)c1ccc(S(C)(=O)=O)c([N+](=O)[O-])c1 | active: -93.5%
O=C(NC1CCCN(c2ccc(C(F)(F)F)cn2)C1)c1ccncc1 (stereo not drawn) | inconclusive: -41.9%
Cc1cccc(NC(=O)N2CCN(Cc3ccc4c(c3)OCO4)CC2)c1C | active: -74.8%
CCOC(=O)CSc1nc2cc(C(=O)N3CCC(C(N)=O)CC3)ccc2c(=O)n1C1CCCCC1 | inconclusive: -42.6%
COc1ccccc1N(CC(=O)NC1CCCC1)C(=O)CNC(=O)c1cccs1 | inactive: 12%
CCOc1ccc(-c2nnc(N(CC)C(=O)C3CCC3)s2)cc1 | inactive: 3.39%
CSc1ncc(C(=O)Nc2ccccc2C)c(C)n1 | inconclusive: -55.5%
CN(c1ccccc1)S(=O)(=O)c1cccc(Cl)c1Cl | inconclusive: -42%
Nc1nn(-c2ccccc2)nc1C(=O)OCc1c(F)cccc1Cl | inactive: 34.6%
Cc1ccc(S(=O)(=O)Nc2ccc(O)c3cccnc23)cc1 | inactive: 9.97%
COc1cc(/C=N/N2CCN(Cc3ccc(Cl)cc3)CC2)cc(Br)c1O | inconclusive: -40.9%
CCCC(=O)N1CCN(c2nc3ccc(F)cc3s2)CC1 | inactive: -4.76%
CCOc1cc(CNCCO)cc(Br)c1OCc1ccccc1 | inconclusive: -45.6%
O=C1/C(=C/c2cccs2)SC(=S)N1CCC(=O)N1CCCCC1CCO (stereo not drawn) | active: -95.7%
Cc1ccc2nc(-c3ccccc3)cc(C(=O)N3CC(C)OC(C)C3)c2c1 (stereo not drawn) | inactive: 2.31%
Cc1ccccc1OCC(=O)NS(=O)(=O)c1ccc(Cl)cc1 | inactive: 5.39%
Cc1nc(NC(=O)c2ccc(OCC(C)C)cc2)sc1Cc1ccc2c(c1)OCO2 | inconclusive: -50.1%
CCn1c(Oc2ccccc2F)nc2c1c(=O)n(C)c(=O)n2C | inconclusive: -43.8%
COc1ccccc1NS(=O)(=O)c1cc(NC(=O)c2ccc3c(c2)OCCO3)ccc1C | inconclusive: -44.8%
O=C(NNC(=O)c1ccccc1O)c1ccc(Cl)c(S(=O)(=O)N2CCc3ccccc32)c1 | active: -72.4%

Compound | activity change, negative = inhibition
CC(=O)N/C(=N/c1nc(C)cc(C)n1)Nc1ccc(C)cc1Cl | inconclusive: -55.7%
O=C(N/N=C(\c1ccccc1)c1cccnc1)C(O)(c1ccccc1)c1ccccc1 | inconclusive: -52.3%
Cn1ncc(Cl)c1C(=O)NCc1ccc2c(c1)OCO2 | inconclusive: -40.3%
COc1ccc(S(=O)(=O)N(C)CC(=O)N2CCCCCC2)cc1OC | inactive: -38.4%
CCOc1ccccc1C(=O)N[C@H](C(=O)OCc1cc(=O)oc2cc(C)ccc12)C(C)C | inactive: -22.6%
CCOc1cc(C#N)c(-n2nnc3c(sc4nc(C)cc(C)c43)c2=O)cc1OCC | inactive: 2.49%
Cc1cccc(N(C)C(=O)c2cc3c(=O)[nH]c4ccc(C)cc4c3s2)c1 | inconclusive: -44.5%
CCCC(=O)OCCNC(=O)c1cc2ccccc2oc1=O | inactive: 14.6%
CCCCN(C(=O)CN1C(=O)C2CCCCC2C1=O)c1c(N)n(CCC)c(=O)[nH]c1=O (stereo not drawn) | inactive: 6.77%
COc1ccc(NC(=O)c2oc3ccccc3c2NC(=O)C2CCCCC2)c(OC)c1 | inactive: -3.46%
Nc1c(C(=O)Nc2ccccc2)sc2nc3c(cc12)CN(Cc1ccccc1)CC3 | inconclusive: -40.9%
CCCCn1c(N)c(N(CC)C(=O)c2cc3c(s2)CCCCC3)c(=O)[nH]c1=O | inactive: -4.92%
Cn1c(Sc2ccc([N+](=O)[O-])cc2C(F)(F)F)nnc1-c1ccccc1 | inconclusive: -45.9%
Nc1c(N(Cc2ccccc2)C(=O)CCc2ccccc2)c(=O)[nH]c(=O)n1Cc1ccccc1 | inconclusive: -42.9%
CCN(C[C@H]1N[C@@](C)(C(=O)OC)[C@H]2C(=O)N(C)C(=O)[C@@H]12)C(=O)Nc1ccc(F)cc1 | inactive: 7.88%
O=C(NC(NC(=S)Nc1cccc(Cl)c1)C(Cl)(Cl)Cl)OCc1ccccc1 (stereo not drawn) | inconclusive: -57.5%
Nc1ccc(Nc2nc(-c3ccncc3)cs2)cc1 | active: -98.6%
CCOC(=O)N1CCN(S(=O)(=O)c2ccc(C(=O)N(CCCN(C)C)c3nc4ccc(CC)cc4s3)cc2)CC1 | active: -62.1%
COc1ccc(CNC(=O)CSCc2cnn(-c3ccccc3)c2-n2cccc2)cc1OC | active: -79.6%
COC(=O)CC1=C(c2ccc([N+](=O)[O-])cc2)CCC1=O | inactive: -37.5%
C=CCn1c(SCC(=O)Nc2ccc3c(c2)OCCO3)nnc1-c1ccccn1 | inactive: 10.9%
CC[C@@H](O)C[C@H]1CCC[C@@]2(C[C@@H]3OC(=O)/C=C/[C@@](C)(O)[C@@H](O)[C@H](C)[C@@H](O)[C@H](OC4CCC(N(C)C)C(C)O4)[C@@H](O)[C@](C)(O)CCCCC/C=C/[C@@H]4CC(C)(C)O[C@@]4(O)C[C@H](O2)[C@H]3C)O1 (stereo partly drawn) | active: -96.9%

Fetched by structure from the entries so far (seven):
Compound | activity change, negative = inhibition
Nc1c(C(=O)Nc2ccccc2)sc2nc3c(cc12)CN(Cc1ccccc1)CC3 | inconclusive: -40.9%
Nc1ccc(Nc2nc(-c3ccncc3)cs2)cc1 | active: -98.6%
Nc1c(N(Cc2ccccc2)C(=O)CCc2ccccc2)c(=O)[nH]c(=O)n1Cc1ccccc1 | inconclusive: -42.9%
CC(=O)N/C(=N/c1nc(C)cc(C)n1)Nc1ccc(C)cc1Cl | inconclusive: -55.7%
COc1ccc(CNC(=O)CSCc2cnn(-c3ccccc3)c2-n2cccc2)cc1OC | active: -79.6%
CCCC(=O)OCCNC(=O)c1cc2ccccc2oc1=O | inactive: 14.6%
Cn1c(Sc2ccc([N+](=O)[O-])cc2C(F)(F)F)nnc1-c1ccccc1 | inconclusive: -45.9%
